PubChem BioAssay AID1347075 (National Center for Advancing Translational Sciences (NCATS), 2019)
About 5,500 (1.4%) of roughly 400,000 compounds were called active. The shares of active, inactive and inconclusive entries below differ from those in the screen. Calls come from the whole dose curve; as a rule, active = well fitted cell-killing curve with a large enough effect; inconclusive = small, poorly fitted or top-dose-only effect, or effect the other way; inactive = flat fitted curve, though single readings scatter. A potency beside an inconclusive call is a rough fit, not a confirmed value.

experiment: qHTS assay for MDR1-selective chemotherapeutics: Primary screen using the parental adenocarcinoma cell KB-3-1; settings: KB-3-1 viability, CellTiter-Glo ATP luminescence, 72 h; activity change, negative = cytotoxic: at 46.1 µM (top of the series); note: nearly all actives have a fitted effect of over 60% in size
Summary of the method: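 Parental KB-3-1 viability, qHTS format: 72 h compound exposure, 37 °C; CellTiter-Glo; media-only wells and DMSO plates as controls; concentration-effect fits on corrected data.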
% is set by controls: 0 for no effect and ±100 for the full control effect; potency is the fitted concentration of half-maximal effect.

SMILES | activity change, negative = cytotoxic | Potency
Cc1cnn(C(=O)c2cc(-c3ccccc3)nc3ccccc23)c1 | inactive: -9.07% | 
COc1cc(CNC(=O)c2nc(Cn3nc(C)c(Br)c3C)no2)cc(OC)c1 | inactive: -6.18% | 
O=C(CSc1nc2ccccc2o1)Nc1nc2c(s1)CCCC2 |  | inconclusive: 29.1 µM [cytotoxic, partial curve, poor fit]
CC(C)Oc1ccc(CNC(=O)c2ccc(NC(=O)c3nsc4ccccc34)cc2)cc1 | inactive: -7.75% | 
CC(O)(c1cccnc1)c1nc(-c2ccc3ccccc3c2)cs1 (stereo unspecified) |  | inconclusive: 2.59 µM [cytotoxic, full curve, poor fit]
Cc1cc(NC(=O)Nc2ccc(F)cc2F)n(C)n1 |  | inconclusive: 10.3 µM [cytotoxic, partial curve, poor fit]
O=S1(=O)N=C(Oc2cccc(C(F)(F)F)c2)c2ccccc21 |  | inconclusive: 7.31 µM [rising, partial curve]
CCOC(=O)c1c(NC(=O)/C=C/C(=O)O)sc(C)c1-c1ccc(F)cc1 |  | inconclusive: 29.1 µM [cytotoxic, single point]
CNC(=O)c1ccc2cc(OC)c(OC)cc2c1 | inactive: -3.31% | 
CC(=O)Oc1ccc(Cl)cc1/C=C/c1ccc2ccccc2n1 |  | inconclusive: 29.1 µM [cytotoxic, single point]
CCOC(=O)CC(NCc1ccc(OC)c(OCC)c1)c1ccc(C)cc1 (stereo unspecified) |  | inconclusive: 20.6 µM [rising, single point]
O=C(O)c1[nH]n(-c2ccc(S(=O)(=O)O)cc2)c(=O)c1N=Nc1ccc(S(=O)(=O)O)cc1 | inactive: 0% | 
CC(=O)Cc1nsc(NC(=O)c2ccc(-c3ccccc3Cl)o2)n1 |  | inconclusive: 29.1 µM [cytotoxic, single point]
O=C(CSc1nc2nn(-c3ccccc3)c(=O)c-2c2n1CCCCC2)NCCc1ccccc1 |  | inconclusive: 23.1 µM [rising, partial curve, poor fit]
COc1ccc(N/C(N)=N/c2nc(CSc3nnc(C)s3)cc(=O)[nH]2)cc1 |  | active: 5.17 µM
O=C(C[C@H]1CC[C@H](NC(=O)Nc2ccccc2F)[C@@H](CO)O1)NCc1ccc(-c2ccccc2)cc1 | inactive: -12.6% | 
COc1ccc(NC(=O)CN2CCN(c3c(C)cccc3C)CC2)cc1 | inconclusive: -84.7% | 
O=C(c1cc2ccccc2o1)N1CCCC1 |  | inconclusive: 0.517 µM [cytotoxic, full curve, poor fit]
CCCCOc1cccc(C(=O)Nc2cc3nn(-c4ccc(F)cc4)nc3cc2C)c1 | inactive: 5.36% | 
COc1ccccc1CNC(=O)C(C)n1nc(C)c2c(C)n(-c3ccccc3)nc2c1=O (stereo unspecified) |  | inconclusive: 20.6 µM [cytotoxic, single point]
CCOC(=O)C1=C(C)N(c2ccc(OC)cc2)C(=O)/C1=C\c1cccs1 |  | inconclusive: 29.1 µM [cytotoxic, single point]
O=C(CCl)Nc1cccc(CP(=O)(c2ccccc2)c2ccccc2)c1 |  | active: 13 µM
COc1ccc(Nc2cc(C)nc(NCc3ccccc3)n2)cc1 |  | inconclusive: 23.1 µM [cytotoxic, single point]
CCCCNC(=O)Nc1nnc(-c2ccc(Cl)cc2)o1 |  | inconclusive: 0.259 µM [rising, full curve]

Grouped by structure: the compounds so far with a thiophene ring, fused or not.
SMILES | activity change, negative = cytotoxic | Potency
CCOC(=O)c1c(NC(=O)/C=C/C(=O)O)sc(C)c1-c1ccc(F)cc1 |  | inconclusive: 29.1 µM [cytotoxic, single point]
CCOC(=O)C1=C(C)N(c2ccc(OC)cc2)C(=O)/C1=C\c1cccs1 |  | inconclusive: 29.1 µM [cytotoxic, single point]

(more compounds)

SMILES | activity change, negative = cytotoxic | Potency
CC(C)(C)c1ccc(-c2noc(CCC(=O)Nc3cccnc3)n2)cc1 |  | inconclusive: 29.1 µM [cytotoxic, single point]
CCOC(=O)COc1coc(CN2CCN(c3ccc(F)cc3)CC2)cc1=O |  | inconclusive: 23.1 µM [rising, single point]
O=C1NC(=S)S/C1=C\c1cc(Cl)cc(Cl)c1O |  | inconclusive: 29.1 µM [cytotoxic, single point]
Clc1cccc(-c2cc3nc4c(c(N5CCOCC5)n3n2)CCCC4)c1 | inactive: -0.143% | 
CC(C)(c1ccccc1)c1ccc(OCC(O)CN2CCCC2)cc1 (stereo unspecified) |  | inconclusive: 29.1 µM [cytotoxic, single point]
Cc1ccc(C(=O)c2c3ccc([N+](=O)[O-])cc3[n+]([O-])n2CCCC(N)=O)cc1 |  | inconclusive: 29.1 µM [cytotoxic, partial curve, poor fit]
COc1cc(/C=C2\SC(=Nc3ccc(O)cc3)NC2=O)cc(OC)c1OC |  | active: 4.61 µM
CCCCCCn1c(C)nc2c(c1=O)c1nc3ccccc3nc1n2/N=C/c1ccco1 |  | inconclusive: 29.1 µM [cytotoxic, single point]
COc1ccc(C(=O)O/N=C(\N)c2ccccn2)cc1 |  | inconclusive: 13 µM [cytotoxic, single point]
COc1cccc(CN(C)C(=O)c2cc(S(=O)(=O)N3CCN(c4ccccc4)CC3)ccc2Cl)c1 |  | inconclusive: 20.6 µM [cytotoxic, single point]
COc1cccc(-c2csc(NNC(=O)c3cccs3)n2)c1 | inactive: -19.1% | 
COc1ccc(Cc2c(-c3cccc(Br)c3)nc3c(C)cc(Br)cn23)c(C)c1 | inactive: -0.289% | 
O=C(c1ccc(N2CCN(C(=O)c3ccccc3Br)CC2)cc1)c1cccc(F)c1 |  | inconclusive: 11.6 µM [cytotoxic, partial curve]
N=c1n(Cc2ccc(Cl)cc2)c2ccccc2n1CC(O)COc1ccccc1 (stereo unspecified) | inconclusive: -74.5% | 
CC(C)c1ccc(NC(=O)COC(=O)c2cc(=O)[nH]c3ccccc23)cc1 | inactive: -2.21% | 
COc1cccc(OCc2nc3ccccc3n2CCOc2ccccc2)c1 | inconclusive: -31.5% [cytotoxic] | 
COc1ccc(NC(=O)Cc2coc3cc(C)cc(C)c23)c(OC)c1 | inactive: -2.79% | 
CCOC(=O)C1CCCN(CC(=O)Nc2c(C(=O)OC)[nH]c3ccc(Br)cc23)C1 (stereo unspecified) | inactive: -16.2% | 
Cc1ccc(-c2cc(C(=O)N3CCN(c4ccc(F)cc4)CC3)c3ccccc3n2)o1 |  | inconclusive: 29.1 µM [cytotoxic, single point]
Cc1cc(C)n2nc(CC(=O)NCc3ccccc3Cl)nc2n1 |  | inconclusive: 16.4 µM [rising, single point]
COc1ccc(/C=N/NC(N)=S)cc1OC(=O)c1cccc2ccccc12 |  | inconclusive: 29.1 µM [cytotoxic, single point]
Cc1cc(Cl)ccc1NC(=S)NC(C)(C)C |  | inconclusive: 23.1 µM [cytotoxic, partial curve, poor fit]
COc1ccc(NC(=O)CS(=O)CC(=O)Nc2ccc(-n3cnnn3)c(C)c2)cc1 (stereo unspecified) |  | inconclusive: 20.6 µM [rising, single point]
O=C(NNC1=C(C(=O)C(F)(F)F)CCC1)c1cccc(Cl)c1 |  | inconclusive: 16.4 µM [cytotoxic, single point]

SMILES | activity change, negative = cytotoxic | Potency
CCN(CC)CC(=O)Nc1ccc2c(c1)Nc1ccccc1CC2 |  | inconclusive: 35.5 µM [cytotoxic, single point]
CC(=O)Cn1nnc2sc(-c3ccccc3)cc2c1=O |  | inconclusive: 2.31 µM [cytotoxic, partial curve, poor fit]
COCCNC(=O)c1cc2n(n1)CCCN(Cc1ccc(C)cc1)C2=O | inactive: 11.7% | 
COc1ccccc1C(=O)NCCC(=O)N1CCN(S(=O)(=O)c2ccc(Cl)cc2)CC1 | inactive: 10.5% | 
COc1ccccc1NC(=O)N1c2ccc(F)cc2CCC1C (stereo unspecified) | inactive: -3.08% | 
O=C1CC(c2nc3ccccc3n2Cc2c(F)cccc2Cl)CN1c1cccc(C(F)(F)F)c1 (stereo unspecified) |  | inconclusive: 20.6 µM [cytotoxic, single point]
Cc1ccc2nc(/C(C#N)=C/c3cn[nH]c3-c3ccc(F)cc3)[nH]c2c1 |  | inconclusive: 18.4 µM [cytotoxic, single point]
O=C(CSC1=Nc2ccccc2C2CC=NN12)NCc1ccco1 (stereo unspecified) |  | inconclusive: 20.6 µM [cytotoxic, single point]
O=C(CN1CCN(c2ncccn2)CC1)N(Cc1ccccc1)c1ccc(F)cc1 |  | inconclusive: 29.1 µM [cytotoxic, single point]
O=[N+]([O-])c1ccc(S(=O)(=O)N/N=C/c2ccsc2)cc1 | inactive: 3.91% | 
CNC(=O)C[C@@H]1CC[C@@H]2[C@H](COC[C@H](O)CN2S(=O)(=O)c2ccccc2Cl)O1 | inactive: 11.6% | 
COc1cc(SC)ccc1C(=O)Nc1ccc(Br)cn1 |  | inconclusive: 11.6 µM [cytotoxic, partial curve]
NC(=S)NN=C1Cc2cccc3cccc1c23 |  | active: 1.3 µM
COc1ccc(NC(=O)CC2C(=O)N(c3ccc(C)cc3)C(=O)N2CCc2ccccc2)cc1 (stereo unspecified) |  | inconclusive: 13 µM [cytotoxic, single point]
COc1ccc(CC2(c3ccccc3)NC(=O)NC2=O)cc1 (stereo unspecified) |  | inconclusive: 23.1 µM [cytotoxic, single point]
CC1(C)c2ssc(=S)c2-c2ccccc2N1C(=O)CSC1=NCCS1 | inactive: -22.2% | 
CCOc1cccc(CN2CCCC(CNC(=O)c3cccc(OC)c3OC)C2)c1 (stereo unspecified) | inactive: -5.15% | 
CC(C)c1cc(C(=O)N/N=C/C(Br)=C/c2ccccc2)n[nH]1 |  | active: 10.3 µM
CCOc1ccccc1-n1c(SCC(=O)N2CCOCC2)nc2ccccc2c1=O | inactive: 7.3% | 
O=[N+]([O-])c1ccccc1/C=N/Nc1nccnc1Cl |  | inconclusive: 23.1 µM [cytotoxic, single point]
CC(C)N(CCNC(=O)c1cn(C)c2ccc(S(=O)(=O)N(C)C)cc2c1=O)Cc1ccccc1 |  | inconclusive: 25.9 µM [rising, single point]
CN1CCN(c2ccc(-c3cc(NC=O)c4ncc(-c5ccc(F)cc5)n4c3)cc2)CC1 |  | inconclusive: 13 µM [cytotoxic, partial curve]
Cc1ccsc1CNn1cnnc1SCc1ccc(Cl)cc1 |  | inconclusive: 8.2 µM [cytotoxic, partial curve]
